The results in this text go back to publication PMC2797610.

Chains of the proteins cited; added tags and fusions are not shown.
UniProt P22216: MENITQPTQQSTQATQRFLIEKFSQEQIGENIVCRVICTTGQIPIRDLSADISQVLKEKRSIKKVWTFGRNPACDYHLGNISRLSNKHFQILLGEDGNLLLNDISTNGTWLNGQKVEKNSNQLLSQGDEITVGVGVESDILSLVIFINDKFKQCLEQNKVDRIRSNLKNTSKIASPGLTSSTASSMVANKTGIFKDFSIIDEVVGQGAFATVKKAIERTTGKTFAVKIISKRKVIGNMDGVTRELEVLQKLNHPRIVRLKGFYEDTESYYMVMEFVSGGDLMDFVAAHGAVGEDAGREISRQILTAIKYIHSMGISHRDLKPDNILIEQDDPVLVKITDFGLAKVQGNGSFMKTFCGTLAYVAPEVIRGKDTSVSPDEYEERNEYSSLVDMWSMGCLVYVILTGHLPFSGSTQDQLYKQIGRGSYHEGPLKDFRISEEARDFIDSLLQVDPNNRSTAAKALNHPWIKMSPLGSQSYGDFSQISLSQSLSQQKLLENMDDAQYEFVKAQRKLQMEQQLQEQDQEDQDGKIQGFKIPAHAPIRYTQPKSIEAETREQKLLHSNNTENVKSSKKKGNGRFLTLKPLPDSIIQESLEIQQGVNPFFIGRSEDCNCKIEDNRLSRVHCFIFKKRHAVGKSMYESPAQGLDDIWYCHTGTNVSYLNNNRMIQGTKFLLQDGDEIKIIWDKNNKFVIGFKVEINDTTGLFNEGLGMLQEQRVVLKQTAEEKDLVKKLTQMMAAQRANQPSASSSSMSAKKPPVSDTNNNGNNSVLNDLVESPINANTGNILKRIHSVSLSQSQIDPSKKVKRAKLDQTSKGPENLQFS

For experiment [1], the target named is T1, GST-PBD_(357–705), recombinant fusion of GST and the polo box domain of Cdc5 (S. cerevisiae) (UniProt P32562).
T1 sequence: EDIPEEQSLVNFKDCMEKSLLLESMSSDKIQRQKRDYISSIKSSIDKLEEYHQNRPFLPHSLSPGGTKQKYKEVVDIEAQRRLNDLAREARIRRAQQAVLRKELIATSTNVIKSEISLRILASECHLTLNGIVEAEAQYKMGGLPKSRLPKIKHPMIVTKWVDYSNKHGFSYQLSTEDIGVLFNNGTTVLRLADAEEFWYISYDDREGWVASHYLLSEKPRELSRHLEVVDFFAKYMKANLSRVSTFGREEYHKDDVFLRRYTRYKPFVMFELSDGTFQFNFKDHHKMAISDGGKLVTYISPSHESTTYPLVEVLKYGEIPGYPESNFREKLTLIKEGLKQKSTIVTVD
In words: pull-down; Standard GST pull down with the polo box of Cdc5, tested for Rad53; no figure is given for this result; only the target purified.

Experiment [2] has as its target T2, lexA fusion with the polo box domain of Cdc5 (pEG202-PBD_(340–705)) (S. cerevisiae) (UniProt P32562).
T2 sequence: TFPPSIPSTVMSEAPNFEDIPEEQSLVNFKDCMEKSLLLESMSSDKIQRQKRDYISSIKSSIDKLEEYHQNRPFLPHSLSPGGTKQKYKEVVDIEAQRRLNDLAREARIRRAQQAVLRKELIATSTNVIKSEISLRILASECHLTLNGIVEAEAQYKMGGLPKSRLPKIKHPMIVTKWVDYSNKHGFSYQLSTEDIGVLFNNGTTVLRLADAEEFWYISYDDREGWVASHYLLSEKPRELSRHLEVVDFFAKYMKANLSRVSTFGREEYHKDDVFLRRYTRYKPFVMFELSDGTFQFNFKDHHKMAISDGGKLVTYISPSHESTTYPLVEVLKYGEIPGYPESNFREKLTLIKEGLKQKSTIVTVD
In words: two-hybrid; B42/lexA system in strain EGY48 with the lacZ reporter pSH18-34; X-Gal plates with raffinose (prey repressed) or galactose (prey expressed).

The target of experiment [3] is T1, GST-PBD_(357–705), recombinant fusion of GST and the polo box domain of Cdc5 (S. cerevisiae). In words: pull-down; GST-PBD(357-705) on glutathione-Sepharose beads incubated with whole cell extract of nocodazole-blocked strain Y202 (SAE2-3HA); 1 hour at 4°C; washed three times with NP-40 buffer; western blot with 12CA5; only the target purified. In general terms: Immunoblotting shows a protein as a band on a membrane.

No constants are given. Whether binding was seen depends on the method and setting. For part of these data: Binding seen in cells or lysates may run through a third protein. Some entries that bind do so weakly or less than the wild type. Sequences can lack the tags named with a protein.

Consider Rad53 (from UniProt P22216 1-821), for which the binding result in experiment [1] was “no binding”.

B1: B42 activating domain fusion of full length Sae2 (pJG4-5-SAE2) (protein, UniProt P46946 1-345)
chain: MVTGEENVYLKSSLSILKELSLDELLNVQYDVTTLIAKRVQALQNRNKCVLEEPNSKLAEILCHEKNAPQQSSQTSAGPGEQDSEDFILTQFDEDIKKESAEVHYRNENKHTVQLPLVTMPPNRHKRKISEFSSPLNGLNNLSDLEDCSDTVIHEKDNDKENKTRKLLGIELENPESTSPNLYKNVKDNFLFDFNTNPLTKRAWILEDFRPNEDIAPVKRGRRKLERFYAQVGKPEDSKHRSLSVVIESQNSDYEFAFDNLRNRSKSPPGFGRLDFPSTQEGNEDKKKSQEIIRRKTKYRFLMASNNKIPPYEREYVFKREQLNQIVDDGCFFWSDKLLQIYARC
For B1, the binding entry in experiment [2] is recorded as “binds”.

B2: Sae2-3HA (protein, UniProt P46946 1-345)
chain: B1 chain
In the case of B2, the binding result in experiment [3] is recorded as “binds”.
